Sequences of proteins named here, by UniProt entry; tags and fusion partners are left off. A change or cut given only in a name is not applied to a line headed by its entry.
UniProt P07195, whole entry, looked up: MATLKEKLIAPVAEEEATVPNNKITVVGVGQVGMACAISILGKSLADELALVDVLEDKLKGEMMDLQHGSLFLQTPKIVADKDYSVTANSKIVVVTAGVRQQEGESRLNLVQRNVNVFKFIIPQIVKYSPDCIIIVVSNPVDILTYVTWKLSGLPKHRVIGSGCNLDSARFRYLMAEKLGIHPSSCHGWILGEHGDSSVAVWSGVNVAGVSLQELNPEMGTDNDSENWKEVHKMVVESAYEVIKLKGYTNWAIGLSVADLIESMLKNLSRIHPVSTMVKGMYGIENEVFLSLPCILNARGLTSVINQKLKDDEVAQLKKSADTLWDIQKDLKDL
UniProt Q6R2W3: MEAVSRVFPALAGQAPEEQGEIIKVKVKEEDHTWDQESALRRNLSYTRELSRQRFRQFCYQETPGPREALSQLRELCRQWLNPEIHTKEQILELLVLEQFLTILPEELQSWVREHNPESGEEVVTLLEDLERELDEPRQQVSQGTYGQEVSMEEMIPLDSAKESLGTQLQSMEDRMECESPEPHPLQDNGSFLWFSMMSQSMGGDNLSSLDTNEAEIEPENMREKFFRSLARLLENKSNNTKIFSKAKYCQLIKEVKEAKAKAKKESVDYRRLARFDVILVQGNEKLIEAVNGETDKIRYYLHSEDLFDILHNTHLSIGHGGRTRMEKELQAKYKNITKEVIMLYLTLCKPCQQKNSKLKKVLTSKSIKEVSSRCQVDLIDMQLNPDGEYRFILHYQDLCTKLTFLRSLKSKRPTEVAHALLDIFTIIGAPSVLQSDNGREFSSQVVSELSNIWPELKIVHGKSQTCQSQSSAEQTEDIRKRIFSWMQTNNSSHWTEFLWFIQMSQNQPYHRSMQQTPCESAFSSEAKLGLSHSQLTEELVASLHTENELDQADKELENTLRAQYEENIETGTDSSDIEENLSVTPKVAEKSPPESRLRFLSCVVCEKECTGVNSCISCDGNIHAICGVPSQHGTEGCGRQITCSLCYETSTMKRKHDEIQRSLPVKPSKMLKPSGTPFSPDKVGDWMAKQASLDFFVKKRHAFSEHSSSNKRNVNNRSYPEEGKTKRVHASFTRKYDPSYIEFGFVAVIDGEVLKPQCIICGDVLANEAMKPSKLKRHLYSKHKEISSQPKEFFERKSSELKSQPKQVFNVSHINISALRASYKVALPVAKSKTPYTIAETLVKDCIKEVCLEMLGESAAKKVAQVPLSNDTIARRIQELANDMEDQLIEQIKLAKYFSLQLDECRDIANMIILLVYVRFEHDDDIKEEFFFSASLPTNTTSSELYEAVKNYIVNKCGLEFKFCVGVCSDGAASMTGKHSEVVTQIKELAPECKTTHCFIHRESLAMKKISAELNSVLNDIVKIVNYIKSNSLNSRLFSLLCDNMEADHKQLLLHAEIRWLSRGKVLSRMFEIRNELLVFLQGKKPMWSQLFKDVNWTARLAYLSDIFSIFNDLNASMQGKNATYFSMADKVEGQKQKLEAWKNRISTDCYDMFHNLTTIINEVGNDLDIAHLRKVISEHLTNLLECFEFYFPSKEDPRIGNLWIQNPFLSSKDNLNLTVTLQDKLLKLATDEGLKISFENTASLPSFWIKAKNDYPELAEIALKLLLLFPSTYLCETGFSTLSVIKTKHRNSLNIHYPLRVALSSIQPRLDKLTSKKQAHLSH
UniProt Q9ULH1: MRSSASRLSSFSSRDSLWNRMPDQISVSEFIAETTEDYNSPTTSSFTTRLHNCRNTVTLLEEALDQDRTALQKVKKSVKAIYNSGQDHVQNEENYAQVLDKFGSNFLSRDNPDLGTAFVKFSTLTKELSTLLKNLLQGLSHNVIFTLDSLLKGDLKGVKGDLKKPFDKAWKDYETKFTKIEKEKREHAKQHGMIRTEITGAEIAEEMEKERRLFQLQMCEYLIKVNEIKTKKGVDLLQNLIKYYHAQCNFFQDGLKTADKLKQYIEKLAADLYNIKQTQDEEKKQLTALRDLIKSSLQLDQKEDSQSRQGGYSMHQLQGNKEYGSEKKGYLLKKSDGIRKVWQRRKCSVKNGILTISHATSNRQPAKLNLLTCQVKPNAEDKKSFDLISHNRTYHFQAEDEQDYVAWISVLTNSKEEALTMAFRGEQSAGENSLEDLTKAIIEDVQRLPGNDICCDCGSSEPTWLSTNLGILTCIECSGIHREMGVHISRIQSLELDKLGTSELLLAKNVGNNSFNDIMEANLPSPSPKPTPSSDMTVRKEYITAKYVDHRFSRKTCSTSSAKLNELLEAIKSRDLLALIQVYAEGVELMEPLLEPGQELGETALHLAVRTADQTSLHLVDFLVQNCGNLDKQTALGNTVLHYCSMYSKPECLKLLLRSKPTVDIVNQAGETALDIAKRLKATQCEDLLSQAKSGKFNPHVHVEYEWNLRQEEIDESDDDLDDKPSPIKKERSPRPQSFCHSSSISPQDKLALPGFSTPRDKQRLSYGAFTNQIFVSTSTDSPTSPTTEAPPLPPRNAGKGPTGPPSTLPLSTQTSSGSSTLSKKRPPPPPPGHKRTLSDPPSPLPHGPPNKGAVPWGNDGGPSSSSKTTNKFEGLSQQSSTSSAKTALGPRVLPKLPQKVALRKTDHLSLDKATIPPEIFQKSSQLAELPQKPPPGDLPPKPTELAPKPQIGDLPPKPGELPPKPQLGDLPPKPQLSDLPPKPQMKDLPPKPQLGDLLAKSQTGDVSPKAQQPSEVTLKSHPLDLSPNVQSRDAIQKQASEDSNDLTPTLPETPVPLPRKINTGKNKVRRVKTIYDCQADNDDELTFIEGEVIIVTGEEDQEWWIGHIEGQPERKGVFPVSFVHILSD
UniProt P63208, whole entry: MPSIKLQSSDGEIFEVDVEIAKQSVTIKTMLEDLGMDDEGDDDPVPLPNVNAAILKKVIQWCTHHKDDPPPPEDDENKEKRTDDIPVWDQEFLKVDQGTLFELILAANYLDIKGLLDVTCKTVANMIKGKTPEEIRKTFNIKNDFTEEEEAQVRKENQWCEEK
UniProt P33991: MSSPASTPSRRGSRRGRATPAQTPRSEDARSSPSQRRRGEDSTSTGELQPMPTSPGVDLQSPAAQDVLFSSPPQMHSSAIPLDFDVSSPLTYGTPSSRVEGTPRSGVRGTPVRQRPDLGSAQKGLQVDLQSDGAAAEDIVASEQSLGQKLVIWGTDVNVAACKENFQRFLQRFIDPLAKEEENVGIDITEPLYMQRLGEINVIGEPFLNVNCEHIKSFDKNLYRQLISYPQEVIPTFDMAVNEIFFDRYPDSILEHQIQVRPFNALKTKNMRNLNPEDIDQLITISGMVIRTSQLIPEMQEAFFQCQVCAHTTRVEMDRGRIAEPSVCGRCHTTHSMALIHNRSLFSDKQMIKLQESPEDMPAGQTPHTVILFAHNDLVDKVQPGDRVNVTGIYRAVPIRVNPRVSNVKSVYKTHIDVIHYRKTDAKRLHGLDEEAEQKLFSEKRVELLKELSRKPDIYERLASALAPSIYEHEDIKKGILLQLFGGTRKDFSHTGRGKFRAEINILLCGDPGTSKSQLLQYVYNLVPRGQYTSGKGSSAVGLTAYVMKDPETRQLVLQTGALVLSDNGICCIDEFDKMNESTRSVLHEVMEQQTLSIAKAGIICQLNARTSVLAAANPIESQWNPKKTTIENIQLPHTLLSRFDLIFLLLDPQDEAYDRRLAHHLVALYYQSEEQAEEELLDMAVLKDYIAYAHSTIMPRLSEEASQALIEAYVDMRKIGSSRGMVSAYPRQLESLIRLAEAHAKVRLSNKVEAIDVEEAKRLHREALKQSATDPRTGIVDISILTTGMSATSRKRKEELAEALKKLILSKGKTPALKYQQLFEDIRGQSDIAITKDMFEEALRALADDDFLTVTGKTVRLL
UniProt Q15653: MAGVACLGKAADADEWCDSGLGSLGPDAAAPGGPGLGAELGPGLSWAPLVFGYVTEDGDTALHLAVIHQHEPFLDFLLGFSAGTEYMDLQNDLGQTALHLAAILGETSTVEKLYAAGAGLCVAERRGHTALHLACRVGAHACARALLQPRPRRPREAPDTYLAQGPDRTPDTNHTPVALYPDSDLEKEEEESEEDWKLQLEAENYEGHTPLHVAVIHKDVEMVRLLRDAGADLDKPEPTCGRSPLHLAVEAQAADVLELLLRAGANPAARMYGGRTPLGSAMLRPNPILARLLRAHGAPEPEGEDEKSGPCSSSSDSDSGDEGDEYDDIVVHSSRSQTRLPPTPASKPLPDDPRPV
UniProt Q9H8G2: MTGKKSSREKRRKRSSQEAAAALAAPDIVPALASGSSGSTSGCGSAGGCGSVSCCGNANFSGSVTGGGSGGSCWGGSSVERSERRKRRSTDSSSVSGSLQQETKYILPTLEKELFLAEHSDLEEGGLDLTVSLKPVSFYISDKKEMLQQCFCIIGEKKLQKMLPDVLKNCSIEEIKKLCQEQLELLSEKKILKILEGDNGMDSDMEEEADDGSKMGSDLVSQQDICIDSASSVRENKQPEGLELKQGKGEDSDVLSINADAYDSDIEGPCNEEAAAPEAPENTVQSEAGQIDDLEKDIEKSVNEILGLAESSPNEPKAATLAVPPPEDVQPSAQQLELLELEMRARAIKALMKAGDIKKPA
UniProt P06396, whole entry: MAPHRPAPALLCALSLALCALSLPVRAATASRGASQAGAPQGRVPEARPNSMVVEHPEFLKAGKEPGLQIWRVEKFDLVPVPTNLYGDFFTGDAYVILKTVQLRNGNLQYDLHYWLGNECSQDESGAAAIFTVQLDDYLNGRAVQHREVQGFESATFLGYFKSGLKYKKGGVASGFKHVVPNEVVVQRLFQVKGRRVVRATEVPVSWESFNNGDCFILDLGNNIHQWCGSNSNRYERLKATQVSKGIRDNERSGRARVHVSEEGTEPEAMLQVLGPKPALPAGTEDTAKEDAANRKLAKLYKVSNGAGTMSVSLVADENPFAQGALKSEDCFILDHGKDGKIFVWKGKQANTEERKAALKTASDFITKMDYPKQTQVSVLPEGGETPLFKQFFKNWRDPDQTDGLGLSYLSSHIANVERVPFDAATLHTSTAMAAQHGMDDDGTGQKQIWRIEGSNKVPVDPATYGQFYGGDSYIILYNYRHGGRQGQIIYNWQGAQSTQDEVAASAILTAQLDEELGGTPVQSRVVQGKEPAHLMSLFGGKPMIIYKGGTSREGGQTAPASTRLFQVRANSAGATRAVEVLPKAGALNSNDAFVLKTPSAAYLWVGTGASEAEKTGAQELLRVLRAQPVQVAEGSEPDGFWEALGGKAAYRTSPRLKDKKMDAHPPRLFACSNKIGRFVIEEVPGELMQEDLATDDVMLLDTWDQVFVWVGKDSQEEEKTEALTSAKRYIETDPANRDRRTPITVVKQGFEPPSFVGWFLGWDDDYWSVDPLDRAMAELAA
A0A1B0GUS4, A0A1B0GUS4, UniProt A0A1B0GUS4, whole entry: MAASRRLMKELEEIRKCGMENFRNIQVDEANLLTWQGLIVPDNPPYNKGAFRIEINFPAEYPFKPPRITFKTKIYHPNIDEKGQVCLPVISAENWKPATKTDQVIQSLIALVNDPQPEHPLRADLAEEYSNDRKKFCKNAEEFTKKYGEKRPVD
UniProt Q9Y5U2: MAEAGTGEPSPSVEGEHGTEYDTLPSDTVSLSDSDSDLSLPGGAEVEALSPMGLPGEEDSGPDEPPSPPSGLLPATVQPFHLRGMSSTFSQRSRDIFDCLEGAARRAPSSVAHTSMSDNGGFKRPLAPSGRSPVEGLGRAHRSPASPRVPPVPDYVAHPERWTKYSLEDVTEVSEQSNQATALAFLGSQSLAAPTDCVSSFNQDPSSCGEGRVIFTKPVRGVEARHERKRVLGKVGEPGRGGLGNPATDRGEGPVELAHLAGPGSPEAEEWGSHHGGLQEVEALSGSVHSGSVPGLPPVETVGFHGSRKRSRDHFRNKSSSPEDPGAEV
UniProt Q9UKI8: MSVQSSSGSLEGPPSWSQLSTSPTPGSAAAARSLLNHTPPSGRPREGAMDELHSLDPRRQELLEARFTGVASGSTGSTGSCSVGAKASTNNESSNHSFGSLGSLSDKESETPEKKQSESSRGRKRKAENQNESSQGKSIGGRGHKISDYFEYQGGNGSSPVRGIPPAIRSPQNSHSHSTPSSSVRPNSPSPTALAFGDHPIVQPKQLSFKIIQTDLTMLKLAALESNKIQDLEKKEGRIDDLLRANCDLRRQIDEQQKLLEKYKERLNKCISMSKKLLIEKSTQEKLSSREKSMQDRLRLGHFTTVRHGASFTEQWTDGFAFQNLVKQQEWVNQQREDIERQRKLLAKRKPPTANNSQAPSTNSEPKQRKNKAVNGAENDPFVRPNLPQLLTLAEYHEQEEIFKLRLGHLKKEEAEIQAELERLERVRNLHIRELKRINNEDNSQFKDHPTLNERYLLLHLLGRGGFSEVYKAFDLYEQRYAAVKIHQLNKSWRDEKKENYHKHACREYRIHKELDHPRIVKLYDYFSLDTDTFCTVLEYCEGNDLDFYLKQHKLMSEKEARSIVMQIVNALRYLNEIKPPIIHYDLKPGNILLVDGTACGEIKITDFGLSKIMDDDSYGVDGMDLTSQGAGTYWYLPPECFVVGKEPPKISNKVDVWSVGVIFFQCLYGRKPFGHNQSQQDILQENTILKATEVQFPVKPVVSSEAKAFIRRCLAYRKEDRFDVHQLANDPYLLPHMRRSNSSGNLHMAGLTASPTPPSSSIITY

According to the supplement of paper PMC10060354, “Discovery of a small molecule ligand of FRS2 that inhibits invasion and tumor growth” (Cellular Oncology, 2022):

Compound: [O-][N+](C(C1=C(C(O)=C2)NC(C(C=C3)=CC=C3Cl)C4C1C=CC4)=C2Cl)=O
Experiment: melting temperature shift (compound 7 minus DMSO); higher = compound stabilises the protein
Details: 10 µM
Protocol: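 Thermal proteome profiling (TMT mass spectrometry) in intact DAOY medulloblastoma cells or DAOY lysates treated with 10 µM compound 7 or DMSO, heated at 10 temperatures from 40.5 to 73.8 °C for 3 min. Melting curves were fitted with the Bioconductor TPP package, and the melting point difference between compound and vehicle is reported per protein (single curve per condition).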

[1] = system: intact DAOY cells, treatment time: 90 min, 37 °C
[2] = system: DAOY cell lysate, treatment time: 20 min, 4 °C

Target | melting temperature shift [1] [°C] | melting temperature shift [2] [°C]
UniProt P48751 | 0.394 | –
LDHB (UniProt P07195) | -0.6 | -0.296
PRRC2B (UniProt Q5JSZ5) | – | -0.53
STXBP4 (UniProt Q6ZWJ1) | -2.76 | –
RAB4A (UniProt P20338) | 1.22 | -1.29
FGFR1OP (UniProt O95684) | 0.406 | -1.9
NFS1 (UniProt Q9Y697) | -0.139 | 0.22
MRPS6 (UniProt P82932) | -2.31 | 0.559
UniProt P17302 | 3.86 | 0.945
SPATS2 (UniProt Q86XZ4) | 0.759 | 0.616
UniProt Q16514 | – | -0.59
AGO1 (UniProt Q9UL18) | – | 3.26
MGST3 (UniProt O14880) | 6.52 | 2.62
UniProt Q7L190 | – | -1.57
NGRN (UniProt Q9NPE2) | – | -1.64
UniProt Q9ULJ6 | -1.02 | -0.911
OTULIN (UniProt Q96BN8) | -0.512 | -0.694
UniProt Q13043 | -0.34 | 0.227
BCLAF1 (UniProt Q9NYF8) | 2.61 | 0.559
UBE3A (UniProt Q05086) | -0.531 | -0.504
ANO10 (UniProt Q9NW15) | -0.468 | 0.605
UniProt Q6R2W3 | -0.343 | –
KNTC1 (UniProt P50748) | -0.441 | -0.957
KANK2 (UniProt Q63ZY3) | – | -0.126

Target | melting temperature shift [1] [°C] | melting temperature shift [2] [°C]
GRB2 (UniProt P62993) | -0.206 | -0.879
ASAP1 (UniProt Q9ULH1) | -0.0409 | 0.401
KTN1 (UniProt Q86UP2) | -0.651 | 1.31
UniProt Q969M1 | – | 0.372
COG7 (UniProt P83436) | -0.885 | -0.271
CSE1L (UniProt P55060) | -1.5 | -0.269
STAM2 (UniProt O75886) | -0.293 | 0.106
SRRM1 (UniProt Q8IYB3) | 0.393 | 0.287
PSMD1 (UniProt Q99460) | -1.22 | -0.684
SKP1 (UniProt P63208) | – | -0.63
UniProt Q8NFT2 | – | -1.36
DECR1 (UniProt Q16698) | -0.11 | 1.45
MRPL44 (UniProt Q9H9J2) | -0.614 | 1
PES1 (UniProt O00541) | 0.869 | 1.34
PIK3C2A (UniProt O00443) | -1.44 | -0.412
MCM4 (UniProt P33991) | -1.11 | -0.164
DHCR24 (UniProt Q15392) | – | -0.261
BCAP31 (UniProt P51572) | – | 3.07
FAM120A (UniProt Q9NZB2) | -0.0593 | 0.243
DHX34 (UniProt Q14147) | 0.095 | –
PMPCA (UniProt Q10713) | -0.108 | 1.06
UniProt Q04844 | -1.66 | –
KDM5C (UniProt P41229) | -1.21 | 0.66
A0A024RBG1, A0A024RBG1 | -0.346 | –

Fetched one by one from the list above, 7 records:
Target | melting temperature shift [1] [°C] | melting temperature shift [2] [°C]
NGRN (UniProt Q9NPE2) | – | -1.64
SRRM1 (UniProt Q8IYB3) | 0.393 | 0.287
FAM120A (UniProt Q9NZB2) | -0.0593 | 0.243
UniProt Q6R2W3 | -0.343 | –
LDHB (UniProt P07195) | -0.6 | -0.296
UniProt Q13043 | -0.34 | 0.227
MCM4 (UniProt P33991) | -1.11 | -0.164

Later entries

Target | melting temperature shift [1] [°C] | melting temperature shift [2] [°C]
EXOSC1 (UniProt Q9Y3B2) | 0.378 | -0.505
UniProt O75487 | – | 0.0909
UniProt Q9UBX3 | 0.709 | 1.3
NFKBIB (UniProt Q15653) | -0.438 | -0.555
UniProt Q9NP31 | – | 0.121
RBBP5 (UniProt Q15291) | 0.627 | 0.531
UTP14A (UniProt Q9BVJ6) | -0.665 | 0.475
UniProt P05496 | – | 1.64
CNPY3 (UniProt Q9BT09) | – | 2.93
PTP4A2 (UniProt Q12974) | -2.01 | -0.647
UniProt Q9H8G2 | – | 2.58
GSN (UniProt P06396) | -0.0184 | 0.14
A0A1B0GUS4, A0A1B0GUS4 | -0.425 | –
PC (UniProt P11498) | -1.25 | 0.885
ACADM (UniProt P11310) | -0.138 | 0.772
LGALSL (UniProt Q3ZCW2) | – | -1.79
EIF2D (UniProt P41214) | -0.729 | -0.182
GPX4 (UniProt P36969) | 1.2 | -1.57
TPM3 (UniProt P06753) | – | -0.843
NCAPG (UniProt Q9BPX3) | -0.57 | -1.19
UniProt P15259 | -1.18 | –
SNRNP70 (UniProt P08621) | -0.414 | 0.86
USP13 (UniProt Q92995) | 0.596 | -0.224
UniProt Q8WV22 | 0.599 | -1.3

Target | melting temperature shift [1] [°C] | melting temperature shift [2] [°C]
UBXN1 (UniProt Q04323) | -1.05 | 0.552
MESDC2 (UniProt Q14696) | 0.356 | 0.725
MED25 (UniProt Q71SY5) | – | -3.54
HSD17B4 (UniProt P51659) | -0.075 | 0.905
GOLIM4 (UniProt O00461) | 0.526 | 1.43
UniProt Q9NXL2 | 1.5 | –
UniProt Q86UX7 | – | -1.18
DHX9 (UniProt Q08211) | -0.424 | 0.248
EML4 (UniProt Q9HC35) | 0.0243 | -0.399
RPL8 (UniProt P62917) | -0.428 | –
RBKS (UniProt Q9H477) | – | -4.06
DOCK10 (UniProt Q96BY6) | 0.408 | 0.146
RNF114 (UniProt Q9Y508) | 1.44 | -2.18
UniProt Q9BYV1 | -0.194 | –
PUDP (UniProt Q08623) | – | -0.0784
SMPD4 (UniProt Q9NXE4) | 0.434 | –
C5ORF22 (UniProt Q49AR2) | 0.983 | -0.573
ATP5O (UniProt P48047) | -1.29 | 1.52
TTPAL (UniProt Q9BTX7) | 0.341 | 0.0607
C2ORF49 (UniProt Q9BVC5) | – | -4.99
ESPL1 (UniProt Q14674) | -0.0991 | -0.0822
RPRD2 (UniProt Q5VT52) | 0.207 | -0.958
MAP7D1 (UniProt Q3KQU3) | -0.0392 | -0.0135
HELB (UniProt Q8NG08) | -0.192 | –

Target | melting temperature shift [1] [°C] | melting temperature shift [2] [°C]
SH3GLB2 (UniProt Q9NR46) | 1.67 | -1.79
BZW2 (UniProt Q9Y6E2) | -0.788 | -0.418
TSSC4 (UniProt Q9Y5U2) | – | 2.61
XIAP (UniProt P98170) | 1.14 | 0.192
TLK1 (UniProt Q9UKI8) | -0.642 | –
CUEDC2 (UniProt Q9H467) | – | 8.48
UniProt Q8IXT5 | 1.69 | 0.533
P3H1 (UniProt Q32P28) | 0.805 | 0.611
UniProt P48380 | -0.893 | –
AP1M1 (UniProt Q9BXS5) | 0.78 | -0.744
GUSB (UniProt P08236) | – | 0.182
NDUFV3 (UniProt P56181) | – | 6.11
ZNF281 (UniProt Q9Y2X9) | – | -1.03
TMEM106B (UniProt Q9NUM4) | 2.55 | 2.8
UniProt Q9UMR5 | – | -1.64
DDX17 (UniProt Q92841) | -0.0421 | 0.329
CHAMP1 (UniProt Q96JM3) | -0.283 | 1.19
POLRMT (UniProt O00411) | – | 4.04
RCL1 (UniProt Q9Y2P8) | -0.157 | 0.572
UniProt Q9H1J7 | -4.99 | –
LYPLAL1 (UniProt Q5VWZ2) | 0.211 | -0.772

Repeats are few or missing, and single values can be far off.
